Data taken from paper PMC8810934.
These are yes or no findings as the source states them, for the method shown. Binding seen in cells or lysates may run through a third protein. Some entries that bind do so weakly or less than the wild type.

Chains of the proteins cited; added tags and fusions are not shown. Lines headed by an entry give the natural chain unless they say otherwise; changes in a name come on top.
UniProt P13395: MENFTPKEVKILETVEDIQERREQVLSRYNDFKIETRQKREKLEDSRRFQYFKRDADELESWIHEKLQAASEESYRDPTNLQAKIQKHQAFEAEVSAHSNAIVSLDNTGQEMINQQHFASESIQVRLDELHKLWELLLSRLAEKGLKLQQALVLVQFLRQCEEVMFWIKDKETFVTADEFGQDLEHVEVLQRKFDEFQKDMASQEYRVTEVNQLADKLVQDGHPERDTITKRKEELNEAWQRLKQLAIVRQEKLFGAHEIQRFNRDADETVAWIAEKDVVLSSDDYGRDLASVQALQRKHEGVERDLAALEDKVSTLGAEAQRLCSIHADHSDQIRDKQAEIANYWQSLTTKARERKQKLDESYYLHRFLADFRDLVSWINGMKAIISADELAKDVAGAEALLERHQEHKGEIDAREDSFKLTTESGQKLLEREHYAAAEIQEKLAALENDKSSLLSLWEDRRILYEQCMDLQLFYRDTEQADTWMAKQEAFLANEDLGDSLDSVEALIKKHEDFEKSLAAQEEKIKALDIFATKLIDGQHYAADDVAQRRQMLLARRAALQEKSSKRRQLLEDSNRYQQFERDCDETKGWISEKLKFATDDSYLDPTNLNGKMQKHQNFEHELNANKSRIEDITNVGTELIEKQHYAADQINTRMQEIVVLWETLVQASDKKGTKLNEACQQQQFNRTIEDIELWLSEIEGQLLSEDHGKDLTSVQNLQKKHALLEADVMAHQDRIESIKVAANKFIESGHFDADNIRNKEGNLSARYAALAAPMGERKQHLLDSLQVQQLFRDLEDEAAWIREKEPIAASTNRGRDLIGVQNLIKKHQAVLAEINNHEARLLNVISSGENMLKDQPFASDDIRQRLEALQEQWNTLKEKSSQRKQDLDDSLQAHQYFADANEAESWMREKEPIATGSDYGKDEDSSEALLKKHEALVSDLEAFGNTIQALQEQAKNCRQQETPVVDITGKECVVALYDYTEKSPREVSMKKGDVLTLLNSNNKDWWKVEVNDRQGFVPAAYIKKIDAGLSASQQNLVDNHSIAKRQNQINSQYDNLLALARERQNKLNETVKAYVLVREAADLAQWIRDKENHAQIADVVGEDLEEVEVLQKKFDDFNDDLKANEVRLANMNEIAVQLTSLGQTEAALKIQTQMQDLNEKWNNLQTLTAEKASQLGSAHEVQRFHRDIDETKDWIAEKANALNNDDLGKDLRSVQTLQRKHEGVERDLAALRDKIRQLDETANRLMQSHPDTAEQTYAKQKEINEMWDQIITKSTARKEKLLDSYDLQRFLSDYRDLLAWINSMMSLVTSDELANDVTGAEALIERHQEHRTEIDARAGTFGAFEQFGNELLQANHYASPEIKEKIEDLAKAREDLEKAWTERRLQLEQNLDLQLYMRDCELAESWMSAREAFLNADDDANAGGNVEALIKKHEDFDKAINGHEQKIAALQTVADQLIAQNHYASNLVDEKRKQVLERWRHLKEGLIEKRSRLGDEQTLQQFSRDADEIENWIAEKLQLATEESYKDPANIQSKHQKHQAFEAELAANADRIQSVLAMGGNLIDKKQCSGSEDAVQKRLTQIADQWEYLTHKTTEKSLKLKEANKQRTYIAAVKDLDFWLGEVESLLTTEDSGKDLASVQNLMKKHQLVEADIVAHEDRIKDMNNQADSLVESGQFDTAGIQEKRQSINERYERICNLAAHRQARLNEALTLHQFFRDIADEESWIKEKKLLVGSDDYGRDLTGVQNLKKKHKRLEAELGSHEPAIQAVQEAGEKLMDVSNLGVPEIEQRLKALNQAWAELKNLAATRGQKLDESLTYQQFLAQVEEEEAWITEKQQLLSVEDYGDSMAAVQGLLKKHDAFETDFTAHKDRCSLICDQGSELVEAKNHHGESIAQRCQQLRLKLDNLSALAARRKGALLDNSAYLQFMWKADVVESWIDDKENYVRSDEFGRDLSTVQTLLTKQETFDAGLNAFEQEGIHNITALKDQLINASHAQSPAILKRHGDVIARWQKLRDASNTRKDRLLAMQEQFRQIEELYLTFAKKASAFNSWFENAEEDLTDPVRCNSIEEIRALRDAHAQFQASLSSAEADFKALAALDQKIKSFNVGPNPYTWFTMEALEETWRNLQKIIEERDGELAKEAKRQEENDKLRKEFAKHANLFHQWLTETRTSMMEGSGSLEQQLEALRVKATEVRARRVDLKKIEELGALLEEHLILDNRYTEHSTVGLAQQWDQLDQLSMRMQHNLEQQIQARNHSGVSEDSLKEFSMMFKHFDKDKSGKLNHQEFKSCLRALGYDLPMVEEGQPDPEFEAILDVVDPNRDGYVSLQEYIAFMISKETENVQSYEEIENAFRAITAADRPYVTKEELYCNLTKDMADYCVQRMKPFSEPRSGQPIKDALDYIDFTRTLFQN
UniProt Q00963: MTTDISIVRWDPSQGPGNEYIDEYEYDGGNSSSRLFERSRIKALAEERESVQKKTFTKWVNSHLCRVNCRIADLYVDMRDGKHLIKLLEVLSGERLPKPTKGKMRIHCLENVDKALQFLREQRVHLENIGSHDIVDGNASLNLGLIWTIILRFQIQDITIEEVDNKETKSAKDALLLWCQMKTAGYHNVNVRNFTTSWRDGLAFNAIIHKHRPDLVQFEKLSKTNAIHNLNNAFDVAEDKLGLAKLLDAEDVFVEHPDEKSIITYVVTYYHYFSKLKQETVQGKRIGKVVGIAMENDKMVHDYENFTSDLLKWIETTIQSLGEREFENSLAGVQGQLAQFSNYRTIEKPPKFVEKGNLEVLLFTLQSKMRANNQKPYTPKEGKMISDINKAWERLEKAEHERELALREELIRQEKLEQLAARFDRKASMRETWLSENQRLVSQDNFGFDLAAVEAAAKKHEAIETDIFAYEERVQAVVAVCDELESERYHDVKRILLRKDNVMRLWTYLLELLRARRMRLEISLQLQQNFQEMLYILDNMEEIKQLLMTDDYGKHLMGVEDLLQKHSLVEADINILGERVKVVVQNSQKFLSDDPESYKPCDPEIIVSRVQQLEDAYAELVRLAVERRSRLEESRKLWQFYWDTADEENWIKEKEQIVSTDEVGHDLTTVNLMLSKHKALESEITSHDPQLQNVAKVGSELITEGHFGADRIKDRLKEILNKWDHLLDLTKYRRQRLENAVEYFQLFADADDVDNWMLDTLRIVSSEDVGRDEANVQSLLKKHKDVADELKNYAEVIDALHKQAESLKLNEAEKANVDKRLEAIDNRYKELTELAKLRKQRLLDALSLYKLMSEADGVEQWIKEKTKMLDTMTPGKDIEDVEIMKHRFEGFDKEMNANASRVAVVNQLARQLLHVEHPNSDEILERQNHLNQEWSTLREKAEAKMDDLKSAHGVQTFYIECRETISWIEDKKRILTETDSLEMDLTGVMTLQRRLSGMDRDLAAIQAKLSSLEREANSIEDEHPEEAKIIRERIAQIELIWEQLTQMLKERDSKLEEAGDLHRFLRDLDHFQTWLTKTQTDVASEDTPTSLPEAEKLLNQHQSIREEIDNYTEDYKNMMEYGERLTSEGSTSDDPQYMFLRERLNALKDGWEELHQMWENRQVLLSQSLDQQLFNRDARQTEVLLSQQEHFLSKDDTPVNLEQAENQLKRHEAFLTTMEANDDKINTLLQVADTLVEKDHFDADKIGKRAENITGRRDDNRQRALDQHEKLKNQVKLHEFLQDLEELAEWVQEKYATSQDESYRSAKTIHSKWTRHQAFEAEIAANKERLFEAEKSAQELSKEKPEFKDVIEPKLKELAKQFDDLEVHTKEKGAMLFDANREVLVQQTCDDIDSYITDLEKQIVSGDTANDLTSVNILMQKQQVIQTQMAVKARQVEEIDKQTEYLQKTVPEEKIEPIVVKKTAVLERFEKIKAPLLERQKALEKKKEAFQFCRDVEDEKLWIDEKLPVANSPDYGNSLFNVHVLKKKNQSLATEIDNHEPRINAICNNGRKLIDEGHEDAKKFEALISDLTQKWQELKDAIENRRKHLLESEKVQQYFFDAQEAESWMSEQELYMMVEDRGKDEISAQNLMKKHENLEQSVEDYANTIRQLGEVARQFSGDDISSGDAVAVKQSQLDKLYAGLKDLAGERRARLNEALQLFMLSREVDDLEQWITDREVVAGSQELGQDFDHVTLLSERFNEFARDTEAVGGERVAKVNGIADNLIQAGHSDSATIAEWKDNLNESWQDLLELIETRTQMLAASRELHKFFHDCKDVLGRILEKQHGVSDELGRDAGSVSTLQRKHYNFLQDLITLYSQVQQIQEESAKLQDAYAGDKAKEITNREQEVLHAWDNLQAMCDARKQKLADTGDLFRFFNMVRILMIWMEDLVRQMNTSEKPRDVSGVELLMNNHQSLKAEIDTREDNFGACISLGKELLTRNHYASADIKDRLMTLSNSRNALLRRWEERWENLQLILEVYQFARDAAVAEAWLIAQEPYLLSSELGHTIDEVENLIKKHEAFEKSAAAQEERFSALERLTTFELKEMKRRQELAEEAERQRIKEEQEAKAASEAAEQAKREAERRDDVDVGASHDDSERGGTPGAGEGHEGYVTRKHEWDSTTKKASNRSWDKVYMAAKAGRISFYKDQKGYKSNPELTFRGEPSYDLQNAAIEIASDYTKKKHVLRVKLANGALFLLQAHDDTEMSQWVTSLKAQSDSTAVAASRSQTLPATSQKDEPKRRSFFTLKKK

Target: Drosophila α-spectrin (Drosophila (endogenous in adult heads)) (UniProt P13395)
Assay: co-IP; Drosophila adult head extracts in RIPA buffer; ~500 µg lysate protein with 10 µg anti-Drosophila α-spectrin 3A9 or normal mouse IgG; Protein A agarose overnight at 4 °C; washed 3 × with RIPA buffer

Substance	binding
N-terminally truncated wild-type Drosophila β-spectrin fused at the C-terminus to GFP (from UniProt Q00963 45-2291) (domain or fragment)	binds
SCA5 (L246P) Drosophila β-spectrin fused at the C-terminus to GFP (from UniProt Q00963 1-2291)	binds
wild-type Drosophila β-spectrin fused at the C-terminus to GFP (from UniProt Q00963 1-2291)	binds
